## Results of single-concentration screens

By UniProt entry, the sequences of proteins in these tests, tags left out. Residues count along the entry.
UniProt P9WPC5, whole entry: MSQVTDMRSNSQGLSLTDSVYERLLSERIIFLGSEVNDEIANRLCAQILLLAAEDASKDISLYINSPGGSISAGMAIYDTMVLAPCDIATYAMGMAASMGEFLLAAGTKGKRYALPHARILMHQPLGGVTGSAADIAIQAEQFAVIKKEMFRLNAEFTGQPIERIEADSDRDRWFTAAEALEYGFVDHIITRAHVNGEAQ
UniProt P9WPC3, whole entry partner: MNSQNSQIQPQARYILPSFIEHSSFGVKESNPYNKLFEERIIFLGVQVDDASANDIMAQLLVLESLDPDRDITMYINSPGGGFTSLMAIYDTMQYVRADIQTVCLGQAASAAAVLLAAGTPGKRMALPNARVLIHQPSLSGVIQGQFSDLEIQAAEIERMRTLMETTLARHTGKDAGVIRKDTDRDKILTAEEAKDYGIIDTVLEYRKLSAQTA
UniProt I6X8D2, whole entry: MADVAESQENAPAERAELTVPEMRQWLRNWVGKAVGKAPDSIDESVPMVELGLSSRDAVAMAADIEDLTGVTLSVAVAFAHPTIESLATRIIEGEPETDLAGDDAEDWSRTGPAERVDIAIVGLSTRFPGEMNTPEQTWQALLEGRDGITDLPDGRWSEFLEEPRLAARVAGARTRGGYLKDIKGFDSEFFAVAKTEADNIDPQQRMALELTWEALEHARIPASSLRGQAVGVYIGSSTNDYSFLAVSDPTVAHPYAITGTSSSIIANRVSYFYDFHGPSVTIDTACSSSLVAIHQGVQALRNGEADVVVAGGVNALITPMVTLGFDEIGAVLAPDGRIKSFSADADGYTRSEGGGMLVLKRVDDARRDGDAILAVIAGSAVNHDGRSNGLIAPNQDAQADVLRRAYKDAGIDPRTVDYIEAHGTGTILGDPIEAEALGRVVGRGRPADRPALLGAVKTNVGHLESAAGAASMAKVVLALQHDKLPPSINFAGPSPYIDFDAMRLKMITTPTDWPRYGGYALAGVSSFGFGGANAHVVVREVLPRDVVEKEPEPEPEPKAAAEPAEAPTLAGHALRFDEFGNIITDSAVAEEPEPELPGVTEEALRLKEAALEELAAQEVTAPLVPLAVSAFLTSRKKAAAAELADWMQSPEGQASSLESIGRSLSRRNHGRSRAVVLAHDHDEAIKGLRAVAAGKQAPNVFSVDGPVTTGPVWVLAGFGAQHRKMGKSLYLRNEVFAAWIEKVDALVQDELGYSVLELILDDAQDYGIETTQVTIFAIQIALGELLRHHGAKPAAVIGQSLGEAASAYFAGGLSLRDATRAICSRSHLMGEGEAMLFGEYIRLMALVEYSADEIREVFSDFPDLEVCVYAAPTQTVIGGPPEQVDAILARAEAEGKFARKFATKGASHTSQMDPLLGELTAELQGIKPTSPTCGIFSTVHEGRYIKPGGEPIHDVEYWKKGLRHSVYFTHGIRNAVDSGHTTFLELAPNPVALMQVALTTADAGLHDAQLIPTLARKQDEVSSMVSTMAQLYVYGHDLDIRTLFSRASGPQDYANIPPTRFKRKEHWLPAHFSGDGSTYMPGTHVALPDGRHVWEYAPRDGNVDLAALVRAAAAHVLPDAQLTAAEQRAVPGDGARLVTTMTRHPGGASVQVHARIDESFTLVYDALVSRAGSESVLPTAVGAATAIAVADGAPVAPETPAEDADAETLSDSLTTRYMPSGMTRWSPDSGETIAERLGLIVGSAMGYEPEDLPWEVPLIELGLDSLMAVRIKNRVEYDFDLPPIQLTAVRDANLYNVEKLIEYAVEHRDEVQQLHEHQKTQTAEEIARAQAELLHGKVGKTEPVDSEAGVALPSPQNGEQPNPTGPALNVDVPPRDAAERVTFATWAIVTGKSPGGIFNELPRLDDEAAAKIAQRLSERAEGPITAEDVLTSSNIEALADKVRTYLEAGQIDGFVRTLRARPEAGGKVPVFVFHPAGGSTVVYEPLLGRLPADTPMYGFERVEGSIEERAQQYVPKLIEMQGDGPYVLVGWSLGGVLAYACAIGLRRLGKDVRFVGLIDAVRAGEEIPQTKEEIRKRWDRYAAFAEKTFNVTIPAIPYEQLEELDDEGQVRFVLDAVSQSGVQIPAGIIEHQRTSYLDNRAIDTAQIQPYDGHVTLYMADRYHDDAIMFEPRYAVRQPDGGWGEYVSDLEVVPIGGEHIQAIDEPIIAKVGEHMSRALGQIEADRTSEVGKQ
UniProt Q8IDJ8, 1-583: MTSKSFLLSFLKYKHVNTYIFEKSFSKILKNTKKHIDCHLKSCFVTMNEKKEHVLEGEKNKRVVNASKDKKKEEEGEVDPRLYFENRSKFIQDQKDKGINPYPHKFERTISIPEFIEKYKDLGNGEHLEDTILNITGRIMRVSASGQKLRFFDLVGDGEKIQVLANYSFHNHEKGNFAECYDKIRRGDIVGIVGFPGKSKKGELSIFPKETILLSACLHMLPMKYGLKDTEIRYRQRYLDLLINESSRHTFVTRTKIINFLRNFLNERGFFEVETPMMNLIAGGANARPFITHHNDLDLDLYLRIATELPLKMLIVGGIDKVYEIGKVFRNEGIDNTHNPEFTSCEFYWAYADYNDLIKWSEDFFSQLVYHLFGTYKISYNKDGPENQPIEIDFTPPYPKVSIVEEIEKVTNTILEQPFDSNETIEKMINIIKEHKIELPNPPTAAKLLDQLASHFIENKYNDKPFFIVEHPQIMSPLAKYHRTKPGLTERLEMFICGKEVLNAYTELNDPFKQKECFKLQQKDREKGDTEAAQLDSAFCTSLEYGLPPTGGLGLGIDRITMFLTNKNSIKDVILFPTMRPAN

A: 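Protease assay of ClpP1P2, read by the AMC dye that it sets free. Target: ClpP1P2, Mycobacterium tuberculosis (UniProt P9WPC5 and UniProt P9WPC3). Concentration: 50 µM. Direction is inferred from only a few compounds that gave an IC50; most scored high, so higher reads as stronger inhibition. Most other retested compounds had strongly negative values. Size under these conditions: about 69,000 compounds, about 10 of them at 50% or above in at least one test.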
B: 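Cell assay of Leishmania donovani living inside macrophages; the read-out is not stated. Compounds at 30 µM. The record gives no direction; compounds that gave an IC50 in retests scored well above the rest, so higher reads as stronger inhibition. Of about 69,000 compounds tested this way, about 1,000 (1.5%) reached 50% or more in at least one test.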
C: 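Enzyme assay of the thioesterase domain of polyketide synthase 13; the read-out is not stated. Target: Polyketide synthase Pks13, Mycobacterium tuberculosis (UniProt I6X8D2). Concentration: 30 µM. The record gives no direction; the compounds picked for IC50 retests had high values, so higher reads as stronger inhibition. About 67,000 compounds were tested under these conditions; 0.46% (about 300) showed 50% or more at least once.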
D: 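Lysine-tRNA ligase, Plasmodium falciparum 3D7 (UniProt Q8IDJ8). Enzyme assay of the cytosolic lysyl-tRNA synthetase in 384-well plates, read by luminescence. Concentration: 30 µM. Higher reads as stronger inhibition, judged from the few compounds that gave an IC50. About 69,000 compounds were tested under these conditions; 0.071% (about 49) showed 50% or more at least once.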
E: 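Assay of Toxoplasma gondii numbers, read through their beta-galactosidase reporter with a colour substrate. Concentration: 10 µM. Higher reads as fewer parasites (inferred from which compounds were picked for retests). Size under these conditions: about 67,000 compounds, about 260 of them at 50% or above in at least one test.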

The filed quantity is “Percent Effect” (%). How 0% and 100% were set is not recorded. Most values in the screen are low, and negative values occur. Compounds were drawn at random from those tested, without regard to their results. Two or more numbers in one place are separate tests of the same structure; such repeats can differ widely. A dash means the value is not listed here; it may have been measured.

Compound	A	B	C	D	E
O=C1CCCN1CCCNCc1cc(O)c2cccc(Cl)c2n1	1.908	29.01	-9.703	6.653	7.993
COCCNC(=O)C1CN(Cc2nccs2)Cc2ccnn2C1 (centres unmarked)	6.356	-	-17.2	2.322	-
Cc1cnc(CN(C)C2CCN(Cc3nc4ccccc4s3)C2)o1 (centres unmarked)	-21.8	-3.855	-21.68	0.5835	-6.794
COc1cccc(CNC(=O)CC2CSc3nc(C)c(C)c(=O)n32)c1 (centres unmarked)	-2.899	48.59	2.683	3.524	2.927
[H][C@]12CC[C@]([H])(CN(S(C)(=O)=O)C1)N(Cc1csc(C(C)=O)c1)C2	-	6.216	-	-	-2.701
CSc1ccccc1C(=O)N(C)Cc1nncn1C(C)C	9.241	36.97	-104.6	3.568	3.738
CC(C(=O)N1CCc2ccccc2C1)n1cc(Br)cn1 (centres unmarked)	5.139	18.73	-	4.29	13.1
Cn1ccnc1CN1CCC(F)(F)C2(CCN(c3cccnc3)C2)C1 (centres unmarked)	5.042	-	-15.06	3.84	-
CCc1nccn1C1CCCN(C(=O)c2cncn2-c2ccccc2)C1 (centres unmarked)	-11.69	-12.18	1.839	1.157	-1.235
[H][C@@]12CS(=O)(=O)C[C@]1([H])N(Cc1cc(C)c(O)c(C)c1)CCN2CC1CC1	-	31.77	-	-	4.468
Cc1cnn(CCNCc2csc(-c3ccc(C(N)=O)cc3)n2)c1	-23.32	22.47	-5.728	-0.1895	3.552
CCc1c(C)sc2nc3n(CC(N)=O)nc(SC)n3c(=O)c12	2.842	18.11	-21.08	3.706	-11.8
CC(C)Cc1noc(CNc2cc3c(cc2Cl)OCCCO3)n1	8.237	-13.71	12.33	4.956	-3.168
O=C(CCc1ccncc1)Nc1ccc(OCC2CCOCC2)cc1	2.789	28.07	-36.48	4.243	2.488
CN(C)c1ccc(CNCc2ccc(N3CCOCC3)cc2)cn1	3.459	12.06	-34.45	5.544	3.244
Cc1nc(CC(=O)N2c3ccccc3OCC2C)cs1 (centres unmarked)	-12.1	-1.035	-5.46	-0.2104	-2.294
O=C1NC(c2cnc(C3CCC3)s2)Nc2ccccc21 (centres unmarked)	-26.5	14.3	12.27	0.9912	-2.386
COc1c(CNCc2nnc3n2CCCCC3)c(C)nn1C	-10.73	-	-19.55	4.423	-
O=C(O)C(F)(F)F.O=C(c1cccnc1)N1CCc2ncnc(C3CCOC3)c2CC1 (centres unmarked)	-	4.891	-	-	-2.385
COCCn1c2c(ccc1=O)CC(N)CC2 (centres unmarked)	-5.818	13.25	-22.89	5.093	-20.53
CC(=O)N(Cc1ncc(C(C)C)o1)C1CCN(Cc2cc(C)no2)C1 (centres unmarked)	-14.62	25.52	-36.39	0.2681	2.257
CCc1nccn1CCCNc1nccc(-c2c(C)nn(C)c2C)n1	-0.322	16.23	-11.76	2.74	13.39
COc1cc(CN(C)[C@@H]2COC[C@H]2c2ccc(F)cc2)cc(OC)c1.O=C(O)CC(O)(CC(=O)O)C(=O)O	-	-35.85	-	-	16.52
Cc1nc2n(n1)CC(NCC(=O)NCC1(c3ccccc3)CC1)CC2 (centres unmarked)	-6.063	11.26	-26.11	-2.621	6.967
CC(C)N(Cc1ccc(C#N)cc1)C(=O)Nc1ccccn1	10.97	8.257	-5.994	2.609	-3.361
COCCc1nc(CSc2ccncc2)n(C)n1	-1.727	1.798	-24.17	1.611	-1.265
CC(C)NC(=O)NCc1ccccc1NS(=O)(=O)c1ccccc1	-4.585	7.744	-11.23	-8.8	1.46
Cc1cnn(CC2CN(CCc3ccncc3)CCO2)c1 (centres unmarked)	-4.912	19.37	-8.368	0.1971	-1.97
CO[C@@H]1CC[C@@H](NS(=O)(=O)c2cn(C)nc2C)[C@H]1O	-20.93	-12.98	-8.838	1.277	-0.4245
COc1cc(C(=O)N(CCC#N)Cc2ccccn2)ccc1C	-2.864	21.38	-15.87	0.5032	4.535
CC(=O)N1CC[C@H]2NC(=O)N(Cc3ccccc3)C(=O)[C@H]21	2.467	-	-35.92	1.504	-
CNC(=O)Cc1noc(-c2cc3c(s2)CCC(C)C3)n1 (centres unmarked)	0.1103	12.87	-20.93	3.02	5.192
O=C(O)C(F)(F)F.[H][C@@]12CO[C@@H](CNC(=O)c3nccn3C)[C@]1([H])CCN(C)C2	-	58.2	-	-	-19.88
CC(=O)N1CCN(C(=O)NCCCN(C(C)C)S(C)(=O)=O)CC1	1.726	2.603	-11.08	5.882	-8.229
Cc1cc2nc(-c3ccccc3)cc(NCC3CCCOC3)n2n1 (centres unmarked)	-27.05	25.51	-23.58	4.589	5.674
COC1CCN(C(=O)c2csc(-c3ccccc3F)n2)CC1	6.244	-13.65	-5.566	2.274	5.912
Cc1nn(C)c(C)c1CN(C)C(=O)c1cc(C(F)(F)F)n(C)n1	-6.124	-29.14	-15.5	-2.895	12.73
O=S(=O)(c1ccc(F)cc1)N1CCCC(c2nccs2)C1 (centres unmarked)	0.2794	16.61 and 6.228	4.613	2.957	25.68
CC(=O)N(C)Cc1cccc(NC(=O)c2cnn(C)c2C)c1	-1.668	14.78	-10.06	-2.881	0.38
CN1CCN(S(=O)(=O)c2ccccc2)Cc2cccnc21.O=C(O)C(F)(F)F	-	28.9	-	-	1.825
Cn1ccnc1CN1CCCC2(CCN(CC3CCCO3)CC2)C1.O=C(O)C(F)(F)F.O=C(O)C(F)(F)F (centres unmarked)	-	38.95	-	-	-2.294
O=C(CCCN1CCOCC1)N1CCCC(CO)(CC2CC2)C1 (centres unmarked)	-14.52	-3.248	-6.787	1.481	7.107
O=C(O)C(F)(F)F.[H][C@@]12COC[C@@H](C(=O)N3CCCCO3)[C@]1([H])CN(C1CCCC1)C2	-	-13.9	-	-	3.818
Cc1cc(-c2nnn(CCNS(C)(=O)=O)n2)ccc1F	-1.878	15.41	-4.045	0.8347	7.047
Cc1n[nH]c(C)c1CCNC(=O)C1CCCN(CC(N)=O)C1 (centres unmarked)	-6.956	14.09	-36.33	-2.313	-2.676

Some entries from above, unchanged:

Result for CNC(=O)Cc1noc(-c2cc3c(s2)CCC(C)C3)n1 (centres unmarked) was A: 0.1103%; B: 12.87%; C: -20.93%; D: 3.02%; E: 5.192%.
Result for COc1cccc(CNC(=O)CC2CSc3nc(C)c(C)c(=O)n32)c1 (centres unmarked) was A: -2.899%; B: 48.59%; C: 2.683%; D: 3.524%; E: 2.927%.
Result for COCCNC(=O)C1CN(Cc2nccs2)Cc2ccnn2C1 (centres unmarked) was A: 6.356%; C: -17.2%; D: 2.322%.
Result for O=C(O)C(F)(F)F.[H][C@@]12COC[C@@H](C(=O)N3CCCCO3)[C@]1([H])CN(C1CCCC1)C2 was B: -13.9%; E: 3.818%.
Result for Cc1cc(-c2nnn(CCNS(C)(=O)=O)n2)ccc1F was A: -1.878%; B: 15.41%; C: -4.045%; D: 0.8347%; E: 7.047%.

Data taken from ChEMBL document CHEMBL3988442, “University of Dundee, Small-Polar-MMV Screening Library” (2021).